Laboratory results published in PMC7819943, “Rice protein-binding microarrays: a tool to detect cis-acting elements near promoter regions in rice”.
The list shows a part of the results.

Protein sequences, listed by entry. Tags and fused reporters are not part of them.
UniProt Q0JBA9, entry or part of it: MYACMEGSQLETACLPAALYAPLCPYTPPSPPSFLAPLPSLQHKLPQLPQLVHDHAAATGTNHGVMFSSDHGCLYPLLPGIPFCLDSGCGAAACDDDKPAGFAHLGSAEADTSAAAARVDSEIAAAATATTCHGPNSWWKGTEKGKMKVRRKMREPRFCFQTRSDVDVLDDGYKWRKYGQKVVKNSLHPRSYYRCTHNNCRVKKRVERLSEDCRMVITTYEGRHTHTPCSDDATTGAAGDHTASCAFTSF

biological target: OsWRKY34 (Oryza sativa, UniProt Q0JBA9 1-250); experiment: protein-binding microarray (RPBM); PBS, 2% BSA, 51.3 ng/ul salmon testes DNA, 50 uM zinc acetate, 200 nM TF, 25 C, 1 h; high values mean tight binding; details: protein: recombinant; tags: N-terminal polyhistidine and DsRed monomer fusion (pET32a); label: CyDye5-dUTP incorporated in the synthesized complementary strand; 3' TTTTT single-stranded linker to array surface; dsDNA, one strand shown
In short: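 The binding signal is fluorescence intensity per feature, in arbitrary units, read on an Axon 4000B scanner. Polyhistidine- and DsRed-tagged transcription factors (N-terminal fusions) from E. coli BL21-CodonPlus were purified on Ni–NTA and applied at 200 nM for 1 h at 25 °C to a double-stranded, BSA-blocked custom Agilent array in buffer with 50 µM zinc acetate.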

| Sequence | binding signal |
| --- | --- |
| GTCTTCGTCCTATGTGGTAGTCTCAGCTCCTCAAACTAGTCGGAGTCACCTAGTGCAG | 8760 fluorescence intensity (a.u.) |
| CACCGCTCCCCGCCGGCCGTTGTCCGTCTCTCTCGCCGCACGGAGTCACCTAGTGCAG | 8200 fluorescence intensity (a.u.) |
| TGTTTTTTTTGCCTTTTACTGTATCTATCAAATTTTAATTCGGAGTCACCTAGTGCAG | 8970 fluorescence intensity (a.u.) |
| ATTTTTCCATGCAATTTTAGCTGTCTTTATCAAAGCTAATCGGAGTCACCTAGTGCAG | 10300 fluorescence intensity (a.u.) |
| GGGCCCCAGTCAGGGTGCGGGGCCACGGAGGGGTCGGGGACGGAGTCACCTAGTGCAG | 9260 fluorescence intensity (a.u.) |
| AAATTAACATGGGTGCTTAGCTGTGTTGTTCGCTTGCATTCGGAGTCACCTAGTGCAG | 8710 fluorescence intensity (a.u.) |
| AAACTGCCTTTGCTTCCATCGCCAACTAACTTAACCATTTCGGAGTCACCTAGTGCAG | 9340 fluorescence intensity (a.u.) |
| GCCTGGATCCGGGTGCGTTTTTCTTTTTTTTCGCCATTTCCGGAGTCACCTAGTGCAG | 13600 fluorescence intensity (a.u.) |
| CTTAGCTGTTCTTGTGTAAGTACAATCATTGTTCTCCTCACGGAGTCACCTAGTGCAG | 9970 fluorescence intensity (a.u.) |
| AGTTTTGATTGTTTTGAATACCTGGACTCTCTCACTATATCGGAGTCACCTAGTGCAG | 9440 fluorescence intensity (a.u.) |
| CCCCGATGGGCGCCGCCGCCACCCCGTTCCTCCGGAGCTCCGGAGTCACCTAGTGCAG | 10400 fluorescence intensity (a.u.) |
| GTCCAACACCACACCACACTCCCGCACCCACATGTCTCGCCGGAGTCACCTAGTGCAG | 8600 fluorescence intensity (a.u.) |
| ACATATTTGCCTCGTTTTTGAATTCCTTGGAGATAGCTTACGGAGTCACCTAGTGCAG | 8150 fluorescence intensity (a.u.) |
| GAATTCATAAGTATGTGTGTGTGTTTGTGTGGACAAGATTCGGAGTCACCTAGTGCAG | 9850 fluorescence intensity (a.u.) |
| ATATAAAAAAATCATTACGCTCATTTTTTTTCTCTTATATCGGAGTCACCTAGTGCAG | 8650 fluorescence intensity (a.u.) |
| TCCGTCCTCGTCAAGTCGTCACGGTCCTCACGGCTTTTTCCGGAGTCACCTAGTGCAG | 12900 fluorescence intensity (a.u.) |
| CGTCCGCCCGAAGCCACCGCCACACCGGCCGCCTCTTCCTCGGAGTCACCTAGTGCAG | 11200 fluorescence intensity (a.u.) |
| CTGTATGTTACATCCTCATTTTTATCGGTCAAGATCATCCCGGAGTCACCTAGTGCAG | 10200 fluorescence intensity (a.u.) |
| TTTTCCGTGTTTTCCGTTTCTGTTTGTTTGGCTTTTTTTTCGGAGTCACCTAGTGCAG | 18600 fluorescence intensity (a.u.) |
| CCCCTACGCAGCCGTCGCCGTGCCTTCCTCGTCCTCCACCCGGAGTCACCTAGTGCAG | 10600 fluorescence intensity (a.u.) |
| ACTGACATGTGGGCCCAATAATTTATTTTCATTATTTTACCGGAGTCACCTAGTGCAG | 8310 fluorescence intensity (a.u.) |
| ACACACACTTTACAGGTTTACAGCCCAACTTATCCGTGCACGGAGTCACCTAGTGCAG | 9890 fluorescence intensity (a.u.) |
| GGTAGTACTATGGCAGAGTTATTTTCAGTCTTTCATTTTTCGGAGTCACCTAGTGCAG | 11900 fluorescence intensity (a.u.) |
| GCTCCTATGCTGCTTGGTTGTTTTCACAAGAATTTCTTGGCGGAGTCACCTAGTGCAG | 8610 fluorescence intensity (a.u.) |
| CGCCTTCGCCTTGCTCGTCTTCGTCTCCGCCTCCTGCGACCGGAGTCACCTAGTGCAG | 8380 fluorescence intensity (a.u.) |
| TCATCTTCTCCTTTCTTTGCTTTCACATCTGGATAACTCTCGGAGTCACCTAGTGCAG | 8750 fluorescence intensity (a.u.) |
| AATACTACCTATCCACCATACTCTCAGCCACCTACTTTCTCGGAGTCACCTAGTGCAG | 8430 fluorescence intensity (a.u.) |

| Sequence | binding signal |
| --- | --- |
| AAAAGTGTCGTTCTATGTCCTCAGTAGTGTCCCATAAAAACGGAGTCACCTAGTGCAG | 8260 fluorescence intensity (a.u.) |
| CAGTGGGCGGTAAGGGTGTTAGGTGTAAAAAAGCAATCGGCGGAGTCACCTAGTGCAG | 8180 fluorescence intensity (a.u.) |
| CTGTGCATTGTTTTTCATACTGTTTTCATTGTATCCAACTCGGAGTCACCTAGTGCAG | 12200 fluorescence intensity (a.u.) |
| GGGGTTTTATCCTTGTATTGTTGCTTTGGTTTGGTTTTTGCGGAGTCACCTAGTGCAG | 9830 fluorescence intensity (a.u.) |
| TGATCTGATCTGACAATTTGGGCGGGCTGTGTTTTATGAACGGAGTCACCTAGTGCAG | 12900 fluorescence intensity (a.u.) |
| CTCTCCAACAACTTCACTATTTCACTCTCCAAACCATATTCGGAGTCACCTAGTGCAG | 8070 fluorescence intensity (a.u.) |
| AGGGTTGACAGGGGCATTTTCGCATTTTATGAAAATACTGCGGAGTCACCTAGTGCAG | 8140 fluorescence intensity (a.u.) |
| ACAACTTTCGCCTCACCTCGAGTCTCATAACACAGACACACGGAGTCACCTAGTGCAG | 8090 fluorescence intensity (a.u.) |
| TAGATCGCGCATTGTGTTTTGATTTGTGGTTGTTCGTGTACGGAGTCACCTAGTGCAG | 9560 fluorescence intensity (a.u.) |
| CTCGCGCCATCTCTCCTCTTCTCTCTCTCTCTCTAAACCACGGAGTCACCTAGTGCAG | 8860 fluorescence intensity (a.u.) |
| ATTTTCTCGCGCCACGTTTAAATCGTTTTTATTTAAATTTCGGAGTCACCTAGTGCAG | 9620 fluorescence intensity (a.u.) |
| GTCATCTTCTATTGGCTGCATCGATCTCGAATTATTACTTCGGAGTCACCTAGTGCAG | 8580 fluorescence intensity (a.u.) |
| TGTCAGCATTTCTTGGTTTTCTTCTCCTGCTTGTTTCCTTCGGAGTCACCTAGTGCAG | 8800 fluorescence intensity (a.u.) |
| GCCGTCGTCGTGGTCTCCGTTCTGCTTCGTTTTTTTACCGCGGAGTCACCTAGTGCAG | 10200 fluorescence intensity (a.u.) |
| ATACTGTTGCGCTGCTCTTTATGTTGATTATTTATTTTTCCGGAGTCACCTAGTGCAG | 11400 fluorescence intensity (a.u.) |
| TTAATGATCTTTCTTTTTTCGCTTGCCTTGAAAATCTTCGCGGAGTCACCTAGTGCAG | 9400 fluorescence intensity (a.u.) |
| CTACCATAGTACTACCATCTCTCTCTTTCTCTCTCCTCAACGGAGTCACCTAGTGCAG | 11800 fluorescence intensity (a.u.) |
| TCGCGATCTCCGTGTCCCGCCCGCCGTCCATCGACCTCTGCGGAGTCACCTAGTGCAG | 9900 fluorescence intensity (a.u.) |
| GGGATTCAGTTGCTTTGACTTTTCTCCCCTCATATCGTTCCGGAGTCACCTAGTGCAG | 15700 fluorescence intensity (a.u.) |
| CCTATGTATGATCACGTCTCCTTCTGTTCTTGGTCTGTCACGGAGTCACCTAGTGCAG | 10500 fluorescence intensity (a.u.) |
| CACCAAAAATTGGCCTTGTCAACCACAACTTTTTTCCATACGGAGTCACCTAGTGCAG | 9310 fluorescence intensity (a.u.) |
| CAACGAGGAGCGATGCATATCTAGCAGTTTTGTTTTTCATCGGAGTCACCTAGTGCAG | 8420 fluorescence intensity (a.u.) |
| GTCTTTTTAAAATTTCTCTCCCATCTTTTTTATTAAAAAACGGAGTCACCTAGTGCAG | 8610 fluorescence intensity (a.u.) |
| AAACTAATATATGTTATCAACTTCTACTCACTTGTTTTTCCGGAGTCACCTAGTGCAG | 8420 fluorescence intensity (a.u.) |
| GCTAGTCAAATTTGCCTTACTAACTGCTCCGCGTAATTATCGGAGTCACCTAGTGCAG | 8500 fluorescence intensity (a.u.) |
| GGCCGGTGATCCTTCCTTAATTTCCCTATCTAGCTTTGTCCGGAGTCACCTAGTGCAG | 11600 fluorescence intensity (a.u.) |
| ACCAGGGCACATCCAGTGAAAGTCAAGCTTCCCTTGCCGTCGGAGTCACCTAGTGCAG | 8550 fluorescence intensity (a.u.) |

Three entries picked at random from the list so far:

| Sequence | binding signal |
| --- | --- |
| AAAAGTGTCGTTCTATGTCCTCAGTAGTGTCCCATAAAAACGGAGTCACCTAGTGCAG | 8260 fluorescence intensity (a.u.) |
| TGATCTGATCTGACAATTTGGGCGGGCTGTGTTTTATGAACGGAGTCACCTAGTGCAG | 12900 fluorescence intensity (a.u.) |
| TAGATCGCGCATTGTGTTTTGATTTGTGGTTGTTCGTGTACGGAGTCACCTAGTGCAG | 9560 fluorescence intensity (a.u.) |
